# According to the supplement of paper PMC10849652:
# The chains behind the UniProt entries cited, without tags or fusion partners. Where a name states a change or a piece, a line headed by the entry shows the natural chain unless it says otherwise.
# UniProt Q15527: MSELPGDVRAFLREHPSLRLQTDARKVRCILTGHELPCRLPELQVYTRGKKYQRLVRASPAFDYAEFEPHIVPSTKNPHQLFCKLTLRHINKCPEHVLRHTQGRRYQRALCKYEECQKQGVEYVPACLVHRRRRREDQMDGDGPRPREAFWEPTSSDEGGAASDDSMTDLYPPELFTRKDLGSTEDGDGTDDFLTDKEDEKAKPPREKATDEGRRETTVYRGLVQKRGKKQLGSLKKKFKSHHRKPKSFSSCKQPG
# UniProt P21675, whole entry, looked up: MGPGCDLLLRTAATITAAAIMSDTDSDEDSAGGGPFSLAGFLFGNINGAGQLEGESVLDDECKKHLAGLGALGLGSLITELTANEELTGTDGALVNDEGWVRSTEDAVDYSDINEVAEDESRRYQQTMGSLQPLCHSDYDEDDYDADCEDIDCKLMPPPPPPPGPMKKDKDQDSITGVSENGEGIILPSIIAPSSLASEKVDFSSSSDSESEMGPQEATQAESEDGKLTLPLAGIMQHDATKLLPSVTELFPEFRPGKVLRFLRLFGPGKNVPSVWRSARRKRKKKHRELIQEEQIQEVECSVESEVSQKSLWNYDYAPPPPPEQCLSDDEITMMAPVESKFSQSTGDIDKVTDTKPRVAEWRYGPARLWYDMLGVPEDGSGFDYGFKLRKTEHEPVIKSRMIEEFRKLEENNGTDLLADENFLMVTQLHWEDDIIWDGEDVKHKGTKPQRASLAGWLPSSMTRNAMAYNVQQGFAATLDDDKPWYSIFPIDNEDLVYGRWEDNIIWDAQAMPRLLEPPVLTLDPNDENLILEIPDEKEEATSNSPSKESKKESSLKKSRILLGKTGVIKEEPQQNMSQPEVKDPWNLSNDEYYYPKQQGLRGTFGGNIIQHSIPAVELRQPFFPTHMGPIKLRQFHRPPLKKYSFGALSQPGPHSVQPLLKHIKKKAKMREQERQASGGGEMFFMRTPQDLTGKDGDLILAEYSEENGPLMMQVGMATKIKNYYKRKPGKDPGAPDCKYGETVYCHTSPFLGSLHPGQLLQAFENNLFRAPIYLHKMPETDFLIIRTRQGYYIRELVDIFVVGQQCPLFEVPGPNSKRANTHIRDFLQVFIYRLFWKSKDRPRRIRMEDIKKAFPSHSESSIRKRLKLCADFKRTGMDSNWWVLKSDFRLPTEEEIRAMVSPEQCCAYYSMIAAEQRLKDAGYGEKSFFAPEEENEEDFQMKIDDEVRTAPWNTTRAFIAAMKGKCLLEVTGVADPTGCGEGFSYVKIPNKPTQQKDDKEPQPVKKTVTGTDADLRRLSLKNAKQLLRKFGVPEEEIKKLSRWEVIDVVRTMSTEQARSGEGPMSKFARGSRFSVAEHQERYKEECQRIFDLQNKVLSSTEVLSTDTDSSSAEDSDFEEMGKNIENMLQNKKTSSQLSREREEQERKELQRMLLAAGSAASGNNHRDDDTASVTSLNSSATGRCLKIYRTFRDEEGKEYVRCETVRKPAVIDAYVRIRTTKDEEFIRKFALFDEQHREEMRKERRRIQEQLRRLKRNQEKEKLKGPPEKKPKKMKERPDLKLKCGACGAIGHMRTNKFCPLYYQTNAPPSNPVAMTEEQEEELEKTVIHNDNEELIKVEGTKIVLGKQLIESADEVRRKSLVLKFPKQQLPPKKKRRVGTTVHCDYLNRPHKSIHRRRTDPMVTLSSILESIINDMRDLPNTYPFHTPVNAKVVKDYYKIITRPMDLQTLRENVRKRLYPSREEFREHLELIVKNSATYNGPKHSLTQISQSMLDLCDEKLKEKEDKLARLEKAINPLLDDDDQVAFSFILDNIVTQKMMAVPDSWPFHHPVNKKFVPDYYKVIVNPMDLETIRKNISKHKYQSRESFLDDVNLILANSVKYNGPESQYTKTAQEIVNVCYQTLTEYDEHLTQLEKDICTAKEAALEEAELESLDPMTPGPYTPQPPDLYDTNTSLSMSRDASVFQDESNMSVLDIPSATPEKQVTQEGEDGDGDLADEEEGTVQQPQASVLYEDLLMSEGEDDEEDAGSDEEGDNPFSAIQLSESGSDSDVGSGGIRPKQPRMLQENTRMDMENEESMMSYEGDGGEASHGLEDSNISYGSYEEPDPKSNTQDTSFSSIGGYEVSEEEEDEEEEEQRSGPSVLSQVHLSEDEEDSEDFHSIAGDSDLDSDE
# UniProt O43752: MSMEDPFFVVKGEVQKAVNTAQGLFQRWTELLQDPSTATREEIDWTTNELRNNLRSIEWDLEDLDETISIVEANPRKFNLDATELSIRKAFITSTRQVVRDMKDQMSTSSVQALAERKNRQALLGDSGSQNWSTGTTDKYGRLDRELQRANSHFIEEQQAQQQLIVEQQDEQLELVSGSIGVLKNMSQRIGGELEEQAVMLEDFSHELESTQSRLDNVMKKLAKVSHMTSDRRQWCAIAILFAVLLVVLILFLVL
# UniProt P51687: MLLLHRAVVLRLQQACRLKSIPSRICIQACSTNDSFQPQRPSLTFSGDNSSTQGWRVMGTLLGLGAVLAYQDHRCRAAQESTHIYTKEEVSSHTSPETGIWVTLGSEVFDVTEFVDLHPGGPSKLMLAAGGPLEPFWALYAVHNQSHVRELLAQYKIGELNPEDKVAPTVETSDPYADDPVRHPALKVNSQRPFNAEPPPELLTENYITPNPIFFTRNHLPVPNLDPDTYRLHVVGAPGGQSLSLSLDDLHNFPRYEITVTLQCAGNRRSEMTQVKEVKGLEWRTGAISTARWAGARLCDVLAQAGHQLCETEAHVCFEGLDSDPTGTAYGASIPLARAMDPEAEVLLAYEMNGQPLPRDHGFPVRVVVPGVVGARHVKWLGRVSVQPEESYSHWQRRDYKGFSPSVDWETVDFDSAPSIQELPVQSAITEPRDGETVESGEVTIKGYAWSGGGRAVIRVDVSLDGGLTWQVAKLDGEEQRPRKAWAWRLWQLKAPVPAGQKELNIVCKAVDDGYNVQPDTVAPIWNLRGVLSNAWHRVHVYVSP
# UniProt Q86TJ2: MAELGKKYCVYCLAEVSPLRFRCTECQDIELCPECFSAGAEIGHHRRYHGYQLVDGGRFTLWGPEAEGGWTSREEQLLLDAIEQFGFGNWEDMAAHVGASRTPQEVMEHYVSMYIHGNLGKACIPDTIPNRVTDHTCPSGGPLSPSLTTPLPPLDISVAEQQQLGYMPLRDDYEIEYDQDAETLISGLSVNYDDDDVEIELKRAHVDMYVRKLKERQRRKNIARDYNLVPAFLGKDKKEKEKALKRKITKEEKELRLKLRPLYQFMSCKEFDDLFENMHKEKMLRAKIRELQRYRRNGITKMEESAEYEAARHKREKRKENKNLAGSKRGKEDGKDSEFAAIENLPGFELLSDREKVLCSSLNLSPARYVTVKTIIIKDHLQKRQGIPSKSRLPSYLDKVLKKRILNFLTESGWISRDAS
# UniProt Q15526: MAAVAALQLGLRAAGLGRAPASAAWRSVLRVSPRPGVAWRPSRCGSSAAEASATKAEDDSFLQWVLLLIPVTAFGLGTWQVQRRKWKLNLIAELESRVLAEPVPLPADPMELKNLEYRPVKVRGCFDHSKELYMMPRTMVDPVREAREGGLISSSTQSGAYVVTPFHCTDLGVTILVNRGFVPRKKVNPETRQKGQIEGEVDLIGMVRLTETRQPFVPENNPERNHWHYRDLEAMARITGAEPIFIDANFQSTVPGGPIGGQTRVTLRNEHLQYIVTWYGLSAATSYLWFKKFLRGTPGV
# UniProt Q15544, whole entry, looked up: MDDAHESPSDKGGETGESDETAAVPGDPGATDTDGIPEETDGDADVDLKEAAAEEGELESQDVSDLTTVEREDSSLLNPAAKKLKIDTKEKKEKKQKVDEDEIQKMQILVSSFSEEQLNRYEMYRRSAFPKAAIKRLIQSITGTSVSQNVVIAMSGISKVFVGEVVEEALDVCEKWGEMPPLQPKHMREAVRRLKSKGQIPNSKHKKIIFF
# UniProt P57105: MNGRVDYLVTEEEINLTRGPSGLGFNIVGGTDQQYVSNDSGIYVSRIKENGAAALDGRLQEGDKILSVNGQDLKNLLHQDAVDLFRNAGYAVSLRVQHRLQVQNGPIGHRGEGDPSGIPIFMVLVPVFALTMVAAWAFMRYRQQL
# UniProt O94864: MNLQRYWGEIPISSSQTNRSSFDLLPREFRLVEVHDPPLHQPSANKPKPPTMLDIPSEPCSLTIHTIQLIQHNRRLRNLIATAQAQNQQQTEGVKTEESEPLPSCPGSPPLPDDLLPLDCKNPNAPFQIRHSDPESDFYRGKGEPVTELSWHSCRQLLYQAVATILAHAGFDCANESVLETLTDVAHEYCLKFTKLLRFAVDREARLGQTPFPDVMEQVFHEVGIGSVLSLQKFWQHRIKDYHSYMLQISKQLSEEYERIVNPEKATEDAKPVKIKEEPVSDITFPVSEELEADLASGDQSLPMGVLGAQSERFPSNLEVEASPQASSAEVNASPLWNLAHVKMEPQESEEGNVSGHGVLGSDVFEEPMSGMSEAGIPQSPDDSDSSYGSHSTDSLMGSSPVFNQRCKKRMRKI
# UniProt P53597: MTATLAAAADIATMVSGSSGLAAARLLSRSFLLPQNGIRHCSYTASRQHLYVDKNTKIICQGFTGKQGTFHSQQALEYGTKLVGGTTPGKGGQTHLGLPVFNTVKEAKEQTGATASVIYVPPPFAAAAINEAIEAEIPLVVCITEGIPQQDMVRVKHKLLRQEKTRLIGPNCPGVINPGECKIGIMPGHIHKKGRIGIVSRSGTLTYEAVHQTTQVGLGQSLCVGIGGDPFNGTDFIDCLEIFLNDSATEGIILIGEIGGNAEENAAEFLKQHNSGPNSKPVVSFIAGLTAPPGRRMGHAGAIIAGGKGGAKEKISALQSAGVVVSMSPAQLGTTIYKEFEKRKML
# UniProt Q9H169: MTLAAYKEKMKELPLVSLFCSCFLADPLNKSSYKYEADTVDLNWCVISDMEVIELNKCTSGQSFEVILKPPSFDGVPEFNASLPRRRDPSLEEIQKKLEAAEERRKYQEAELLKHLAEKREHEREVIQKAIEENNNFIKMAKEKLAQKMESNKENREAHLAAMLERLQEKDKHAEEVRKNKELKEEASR
# UniProt Q8WUJ0: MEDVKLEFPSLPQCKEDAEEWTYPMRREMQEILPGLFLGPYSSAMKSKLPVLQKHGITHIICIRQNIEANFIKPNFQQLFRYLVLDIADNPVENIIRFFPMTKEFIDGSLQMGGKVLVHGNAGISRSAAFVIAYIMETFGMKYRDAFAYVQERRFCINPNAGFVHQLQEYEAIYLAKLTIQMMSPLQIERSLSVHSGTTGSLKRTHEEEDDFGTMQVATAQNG
# UniProt P27105: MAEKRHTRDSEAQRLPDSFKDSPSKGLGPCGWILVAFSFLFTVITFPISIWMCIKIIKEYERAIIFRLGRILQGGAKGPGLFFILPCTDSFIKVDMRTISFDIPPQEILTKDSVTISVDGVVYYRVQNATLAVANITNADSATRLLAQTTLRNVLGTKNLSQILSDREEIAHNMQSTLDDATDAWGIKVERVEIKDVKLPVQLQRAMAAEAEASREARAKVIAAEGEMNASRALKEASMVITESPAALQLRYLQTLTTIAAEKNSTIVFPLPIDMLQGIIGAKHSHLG
# UniProt Q53T94: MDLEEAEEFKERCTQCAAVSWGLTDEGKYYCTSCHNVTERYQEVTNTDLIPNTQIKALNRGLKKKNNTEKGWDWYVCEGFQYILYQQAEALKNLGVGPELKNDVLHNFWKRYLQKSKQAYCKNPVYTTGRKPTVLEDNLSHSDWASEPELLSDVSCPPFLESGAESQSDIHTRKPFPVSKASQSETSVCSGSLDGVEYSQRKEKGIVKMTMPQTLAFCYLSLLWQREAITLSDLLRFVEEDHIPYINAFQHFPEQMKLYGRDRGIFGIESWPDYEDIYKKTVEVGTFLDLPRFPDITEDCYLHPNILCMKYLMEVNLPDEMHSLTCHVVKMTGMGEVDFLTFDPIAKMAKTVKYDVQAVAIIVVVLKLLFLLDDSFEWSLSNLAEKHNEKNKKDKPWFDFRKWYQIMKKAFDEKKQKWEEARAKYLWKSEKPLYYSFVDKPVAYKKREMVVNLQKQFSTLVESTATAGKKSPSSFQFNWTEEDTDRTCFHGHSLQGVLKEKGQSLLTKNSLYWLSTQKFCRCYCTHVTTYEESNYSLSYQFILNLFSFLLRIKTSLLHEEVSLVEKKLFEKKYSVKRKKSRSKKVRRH
# UniProt O94768: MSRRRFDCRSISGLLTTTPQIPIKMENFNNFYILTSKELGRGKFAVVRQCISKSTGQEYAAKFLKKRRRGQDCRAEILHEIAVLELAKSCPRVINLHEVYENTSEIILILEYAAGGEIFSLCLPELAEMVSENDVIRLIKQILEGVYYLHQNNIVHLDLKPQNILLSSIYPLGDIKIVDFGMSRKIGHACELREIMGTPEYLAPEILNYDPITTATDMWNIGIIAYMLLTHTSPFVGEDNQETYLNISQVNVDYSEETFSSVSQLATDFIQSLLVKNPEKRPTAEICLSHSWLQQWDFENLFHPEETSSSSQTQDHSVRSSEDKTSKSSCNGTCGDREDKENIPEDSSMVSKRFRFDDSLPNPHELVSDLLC
# The other results are listed elsewhere or left out.
# How the values were obtained:
# Assay in all cases: log2 fold change, soluble protein after heating vs DMSO (PISA); higher = thermal stabilisation; K562 lysate, 10 uM; active = over 0.2 and 3.5 SD of the protein, either way, in both replicates (recomputed)
# nilotinib = compound: Cc1cn(-c2cc(NC(=O)c3ccc(C)c(Nc4nccc(-c5cccnc5)n4)c3)cc(C(F)(F)F)c2)cn1 [nilotinib]
# Summary of the method: (§1)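 Thermal stability, expressed as log-two fold change relative to solvent controls, is given from duplicates. Crude K562 extract in PBS pH 7.4 with 1 mM MgCl2, at 1 mg/mL protein, was treated with 10 μM compound for 30 min and heated in aliquots for 3 min across 48°C-58°C. After pooling, adjustment to 0.5% NP-40 at 4°C and centrifugation at 21,000xg for 90 min, supernatant protein was measured by TMTpro 16plex LC-MS/MS with channel sums equalised.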
# [1] = compound: Cc1nc(Nc2n[nH]c3c2CN(C(=O)N[C@H](CN(C)C)c2ccccc2)C3(C)C)c2sccc2n1
# Summary of the method: as §1
# dasatinib = compound: Cc1nc(Nc2ncc(C(=O)Nc3c(C)cccc3Cl)s2)cc(N2CCN(CCO)CC2)n1 [dasatinib]
# Summary of the method: as §1
# [2] = compound: Cc1ncc(-c2ccnc(Nc3ccc(S(C)(=O)=O)cc3)n2)n1C(C)C
# Summary of the method: as §1
# [3] = compound: Cn1cc(-c2ccc3c(c2)CCN3C(=O)Cc2cccc(C(F)(F)F)c2)c2c(N)ncnc21
# Summary of the method: as §1
# quisinostat = compound: Cn1cc(CNCC2CCN(c3ncc(C(=O)NO)cn3)CC2)c2ccccc21 [quisinostat]
# Summary of the method: as §1
# tipifarnib = compound: Cn1cncc1[C@@](N)(c1ccc(Cl)cc1)c1ccc2c(c1)c(-c1cccc(Cl)c1)cc(=O)n2C [tipifarnib]
# Summary of the method: as §1
# [4] = compound: NC(=O)Nc1cc(-c2cccc(F)c2)sc1C(=O)N[C@H]1CCCNC1
# Summary of the method: as §1
# [5] = compound: NC(=O)c1cnc(N[C@@H]2CCCC[C@@H]2N)nc1Nc1cccc(-n2nccn2)c1
# Summary of the method: as §1
# [6] = compound: NC1(c2ccc(-c3nc4ccn5c(=O)[nH]nc5c4cc3-c3ccccc3)cc2)CCC1
# Summary of the method: as §1
# [7] = compound: NCC(=O)Nc1ccc(-n2nc(C(F)(F)F)cc2-c2ccc3c(ccc4ccccc43)c2)cc1
# Summary of the method: as §1
# vorinostat = compound: O=C(CCCCCCC(=O)Nc1ccccc1)NO [vorinostat]
# Summary of the method: as §1
# silmitasertib = compound: O=C(O)c1ccc2c(c1)nc(Nc1cccc(Cl)c1)c1ccncc12 [silmitasertib]
# Summary of the method: as §1
# [8] = compound: O=C1NC(=O)C(c2cnc3ccccn23)=C1c1cn2c3c(cc(F)cc13)CN(C(=O)N1CCCCC1)CC2
# Summary of the method: as §1
# entospletinib = compound: c1cn2cc(-c3ccc4cn[nH]c4c3)nc(Nc3ccc(N4CCOCC4)cc3)c2n1 [entospletinib]
# Summary of the method: as §1
Target,log2 fold change (nilotinib),log2 fold change [1],log2 fold change (dasatinib),log2 fold change [2],log2 fold change [3],log2 fold change (quisinostat),log2 fold change (tipifarnib),log2 fold change [4],log2 fold change [5],log2 fold change [6],log2 fold change [7],log2 fold change (vorinostat),log2 fold change (silmitasertib),log2 fold change [8],log2 fold change (entospletinib)
TACC3 (UniProt Q9Y6A5),inactive: -0.001,inactive: 0.018,inactive: 0.021,inactive: 0.02,inactive: -0.012,inactive: 0.02,inactive: -0.002,inactive: -0.021,inactive: -0.011,inactive: 0.009,inactive: -0.025,inactive: 0.065,inactive: -0.025,inactive: 0.021,inactive: 0
SURF2 (UniProt Q15527),inactive: -0.192,inactive: -0.052,inactive: -0.045,inactive: 0.195,inactive: -0.031,inactive: -0.054,inactive: 0.066,inactive: -0.036,inactive: 0.014,,inactive: -0.01,,,inactive: 0.04,inactive: 0.049
TAF1 isoform 4 (UniProt P21675),inactive: 0.021,inactive: -0.122,inactive: -0.043,inactive: -0.108,inactive: 0.118,inactive: -0.044,inactive: 0.275,inactive: 0.094,inactive: -0.051,inactive: 0.015,inactive: -0.048,inactive: -0.004,inactive: 0.02,inactive: 0.029,inactive: -0.043
STK39 (UniProt Q9UEW8),inactive: -0.104,inactive: 0.071,inactive: -0.045,inactive: -0.024,inactive: 0.046,inactive: -0.084,inactive: -0.053,inactive: 0.053,inactive: 0.058,inactive: -0.082,inactive: -0.01,active: -0.633,inactive: 0.028,inactive: -0.006,inactive: -0.026
STX6 (UniProt O43752),inactive: 0.017,inactive: 0.043,inactive: 0.019,inactive: -0.043,inactive: 0.041,inactive: -0.078,inactive: -0.016,inactive: -0.002,inactive: -0.02,inactive: -0.001,inactive: 0.03,inactive: 0.112,inactive: -0.04,inactive: 0.021,inactive: -0.052
SUOX (UniProt P51687),inactive: 0.008,inactive: 0.004,inactive: 0.007,inactive: 0.005,inactive: 0.051,inactive: -0.058,inactive: -0.056,inactive: 0.008,inactive: 0.017,inactive: 0,inactive: -0.011,inactive: 0.058,inactive: 0.01,inactive: 0.006,inactive: 0.038
TADA2B (UniProt Q86TJ2),inactive: -0.044,inactive: -0.196,inactive: 0.102,inactive: 0.124,inactive: -0.132,inactive: 0.027,inactive: 0.1,inactive: 0,,inactive: -0.104,inactive: -0.221,inactive: -0.495,inactive: 0.194,inactive: -0.138,
SURF1 (UniProt Q15526),inactive: -0.012,inactive: -0.065,inactive: -0.006,inactive: 0.091,inactive: 0.022,inactive: 0.041,inactive: -0.095,inactive: -0.021,inactive: 0.024,inactive: -0.021,inactive: -0.03,inactive: 0.088,inactive: 0.062,inactive: -0.007,inactive: -0.028
TAF11 (UniProt Q15544),inactive: 0.05,inactive: -0.049,inactive: -0.142,inactive: -0.034,inactive: -0.051,inactive: -0.085,inactive: 0.057,inactive: 0.046,inactive: -0.03,,inactive: -0.005,,,inactive: 0.05,inactive: -0.073
SYNJ2BP (UniProt P57105),inactive: -0.086,inactive: -0.001,inactive: 0.055,inactive: -0.087,inactive: -0.038,inactive: 0.009,inactive: 0.019,inactive: 0.01,inactive: 0.018,inactive: -0.009,inactive: -0.122,inactive: 0.006,inactive: -0.002,inactive: -0.017,inactive: -0.119
SUPT5H isoform 2 (UniProt O00267),inactive: 0.072,inactive: 0.035,inactive: -0.089,inactive: 0.072,inactive: 0.111,inactive: -0.042,inactive: 0.012,inactive: 0.11,inactive: -0.076,,inactive: 0.008,,,inactive: 0.102,
SYNGR2 (UniProt O43760),inactive: -0.009,inactive: 0.044,inactive: 0.001,inactive: 0.095,inactive: -0.02,inactive: -0.051,inactive: 0.033,inactive: -0.022,inactive: -0.082,inactive: -0.049,inactive: -0.255,inactive: 0.083,inactive: 0.013,inactive: 0.083,inactive: 0.02
SUPT7L (UniProt O94864),inactive: -0.073,inactive: 0.042,inactive: 0.235,inactive: -0.118,inactive: -0.072,inactive: 0.112,inactive: 0.072,inactive: 0.048,inactive: 0.035,inactive: 0.062,inactive: -0.057,inactive: 0.009,inactive: -0.001,inactive: -0.033,inactive: -0.024
SUCLG1 (UniProt P53597),inactive: -0.028,inactive: -0.03,inactive: -0.04,inactive: 0.072,inactive: 0.042,inactive: -0.068,inactive: 0.01,inactive: 0.041,inactive: 0.002,inactive: 0.014,inactive: 0.036,inactive: -0.123,inactive: 0.029,inactive: 0.032,inactive: 0.013
STMN4 isoform 2 (UniProt Q9H169),inactive: 0.04,inactive: -0.055,inactive: 0.004,inactive: -0.007,inactive: 0.035,inactive: 0.144,inactive: 0.035,inactive: -0.075,inactive: 0.014,inactive: 0.072,inactive: -0.049,inactive: 0.055,inactive: 0.028,inactive: -0.144,inactive: -0.017
STYX (UniProt Q8WUJ0),inactive: 0.043,inactive: 0.037,inactive: -0.058,inactive: 0.115,inactive: -0.004,inactive: -0.074,inactive: 0.088,inactive: 0.055,inactive: 0.01,inactive: -0.014,,inactive: -0.151,inactive: 0.073,inactive: 0.124,inactive: 0.118
STOM (UniProt P27105),inactive: 0.021,inactive: 0.021,inactive: 0.004,inactive: -0.008,inactive: 0.071,inactive: 0.044,inactive: -0.038,inactive: 0.022,inactive: 0.007,inactive: -0.025,inactive: -0.01,inactive: 0.1,inactive: -0.01,inactive: -0.073,inactive: 0.007
TAF1B (UniProt Q53T94),inactive: -0.061,inactive: -0.067,inactive: -0.174,inactive: -0.105,inactive: 0.635,inactive: -0.064,inactive: -0.103,inactive: 0.017,inactive: 0.015,,active: 0.673,,,inactive: -0.044,inactive: -0.026
STK17B (UniProt O94768),inactive: -0.006,inactive: -0.022,inactive: -0.063,inactive: -0.197,inactive: 0.065,inactive: -0.255,inactive: -0.08,inactive: 0.634,,inactive: -0.021,,inactive: -0.221,active: 0.807,inactive: 0.052,
SUPT4H1 (UniProt P63272),inactive: 0.022,inactive: -0.009,inactive: -0.009,inactive: 0.019,inactive: -0.076,inactive: 0.088,inactive: -0.067,inactive: -0.007,inactive: -0.015,inactive: -0.043,inactive: 0.037,inactive: 0.127,inactive: -0.009,inactive: 0.026,inactive: -0.022

# Look-ups from the list:
# STK17B (UniProt O94768) | log2 fold change (vorinostat): inactive: -0.221
# SUCLG1 (UniProt P53597) | log2 fold change [2]: inactive: 0.072
